# Some of the results follow. Repeats are few or missing, and single values can be far off.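 Imaging used 1,536-well plates; nuclei positive for cleaved PARP by antibody were divided by total DNA-stained nuclei to yield the apoptosis fraction. Doses for screening kept most cells viable, and cell lines differ markedly in resting and induced cleaved-PARP levels.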
# Test system: LB2518-MEL
# Assay: cleaved PARP positive nuclei fraction relative to DMSO control; melanoma cells; higher = more apoptosis
# Conditions: library dose: low library concentration; 72 h
row,SMILES,cleaved PARP positive nuclei fraction
1,"C[C@]1(O)C[C@@H](c2nc(-c3ccc4ccc(-c5ccccc5)nc4c3)c3c(N)nccn32)C1 + CC(=O)O[C@@]12CO[C@@H]1C[C@H](O)[C@@]1(C)C(=O)[C@H](O)C3=C(C)[C@@H](OC(=O)[C@H](O)[C@@H](NC(=O)OC(C)(C)C)c4ccccc4)C[C@@](O)([C@@H](OC(=O)c4ccccc4)[C@H]21)C3(C)C [Docetaxel] (first compound 0.4 µM, partner dose 0.0001 µM)",414%
2,"CC1(C)CCC(c2ccc(Cl)cc2)=C(CN2CCN(c3ccc(C(=O)NS(=O)(=O)c4ccc(N[C@H](CCN5CCOCC5)CSc5ccccc5)c(S(=O)(=O)C(F)(F)F)c4)cc3)CC2)C1 + Cn1sc(=O)n(Cc2ccccc2)c1=O [TDZD-8] (first compound 0.4 µM, partner dose 0.4 µM)",169%
3,"C[C@]1(O)C[C@@H](c2nc(-c3ccc4ccc(-c5ccccc5)nc4c3)c3c(N)nccn32)C1 + OCc1c[nH]c2ccccc12 [Indole-3-carbinol] (first compound 0.4 µM, partner dose 0.8 µM)",108%
4,"CN(c1ncccc1CNc1nc(Nc2ccc3c(c2)CC(=O)N3)ncc1C(F)(F)F)S(C)(=O)=O + C[C@]1(c2nc3c(C(N)=O)cccc3[nH]2)CCCN1 [Veliparib] (first compound 0.08 µM, partner dose 1.4 µM)",105%
5,"C[C@]1(O)C[C@@H](c2nc(-c3ccc4ccc(-c5ccccc5)nc4c3)c3c(N)nccn32)C1 + CCCS(=O)(=O)Nc1ccc(F)c(C(=O)c2c[nH]c3ncc(Cl)cc23)c1F [PLX4720] (first compound 0.4 µM, partner dose 0.08 µM)",196%
6,"CN(c1ncccc1CNc1nc(Nc2ccc3c(c2)CC(=O)N3)ncc1C(F)(F)F)S(C)(=O)=O + Cn1c(=O)n(-c2ccc(C(C)(C)C#N)cc2)c2c3cc(-c4cnc5ccccc5c4)ccc3ncc21 [NVP-BEZ235] (first compound 0.08 µM, partner dose 0.004 µM)",105%
7,"NC(=O)c1ccc(N(C(N)=O)c2c(F)cccc2F)nc1-c1ccc(F)cc1F + CC(=O)c1c(C)c2cnc(Nc3ccc(N4CCNCC4)cn3)nc2n(C2CCCC2)c1=O [palbociclib] (first compound 0.4 µM, partner dose 0.04 µM)",144%
8,"CN(c1ncccc1CNc1nc(Nc2ccc3c(c2)CC(=O)N3)ncc1C(F)(F)F)S(C)(=O)=O + CCCS(=O)(=O)Nc1ccc(F)c(C(=O)c2c[nH]c3ncc(Cl)cc23)c1F [PLX4720] (first compound 0.08 µM, partner dose 0.08 µM)",97.5%
9,"CCCCCCCCc1ccc(CCC(N)(CO)CO)cc1 [fingolimod] + Nc1nc(F)nc2c1ncn2[C@@H]1O[C@H](CO)[C@@H](O)[C@@H]1O [fludarabine] (first compound 2 µM, partner dose 0.2 µM)",246%
10,"CCCCCCCCc1ccc(CCC(N)(CO)CO)cc1 [fingolimod] + CC(=O)c1c(C)c2cnc(Nc3ccc(N4CCNCC4)cn3)nc2n(C2CCCC2)c1=O [palbociclib] (first compound 2 µM, partner dose 0.04 µM)",238%
11,"CC(=O)O[C@@]12CO[C@@H]1C[C@H](O)[C@@]1(C)C(=O)[C@H](O)C3=C(C)[C@@H](OC(=O)[C@H](O)[C@@H](NC(=O)OC(C)(C)C)c4ccccc4)C[C@@](O)([C@@H](OC(=O)c4ccccc4)[C@H]21)C3(C)C [Docetaxel] + Cc1cc(Nc2cc(N3CCN(C)CC3)nc(/C=C/c3ccccc3)n2)n[nH]1 [ENMD2076] (first compound 0.0001 µM, partner dose 0.04 µM)",188%
12,"CC1(C)CCC(c2ccc(Cl)cc2)=C(CN2CCN(c3ccc(C(=O)NS(=O)(=O)c4ccc(N[C@H](CCN5CCOCC5)CSc5ccccc5)c(S(=O)(=O)C(F)(F)F)c4)cc3)CC2)C1 + CCCS(=O)(=O)Nc1ccc(F)c(C(=O)c2c[nH]c3ncc(Cl)cc23)c1F [PLX4720] (first compound 0.4 µM, partner dose 0.08 µM)",257%
13,"CC(=O)O[C@@]12CO[C@@H]1C[C@H](O)[C@@]1(C)C(=O)[C@H](O)C3=C(C)[C@@H](OC(=O)[C@H](O)[C@@H](NC(=O)OC(C)(C)C)c4ccccc4)C[C@@](O)([C@@H](OC(=O)c4ccccc4)[C@H]21)C3(C)C [Docetaxel] + Cn1c(Nc2ccc(C(F)(F)F)cc2)nc2cc(Oc3ccnc(-c4ncc(C(F)(F)F)[nH]4)c3)ccc21 [CHIR265] (first compound 0.0001 µM, partner dose 0.08 µM)",310%
14,"Cn1sc(=O)n(Cc2ccccc2)c1=O + CC(C)C[C@H](NC(=O)[C@H](Cc1ccccc1)NC(=O)c1cnccn1)B(O)O [Bortezomib] (first compound 0.4 µM, partner dose 0.001 µM)",77.6%
15,"COc1ccc(C2=N[C@@H](c3ccc(Cl)cc3)[C@@H](c3ccc(Cl)cc3)N2C(=O)N2CCNC(=O)C2)c(OC(C)C)c1 [Nutlin-3] + C=CCNC1=C2C[C@@H](C)C[C@H](OC)[C@H](O)[C@@H](C)/C=C(\C)[C@H](OC(N)=O)[C@@H](OC)/C=C\C=C(/C)C(=O)NC(=CC1=O)C2=O [Tanespimycin] (first compound 0.1 µM, partner dose 0.002 µM)",110%
16,"C[C@@H](N)c1ccc(C(=O)Nc2ccnc3[nH]ccc23)cc1 + CC(C)C[C@H](NC(=O)[C@H](Cc1ccccc1)NC(=O)c1cnccn1)B(O)O [Bortezomib] (first compound 0.4 µM, partner dose 0.001 µM)",203%
17,"C[C@]1(O)C[C@@H](c2nc(-c3ccc4ccc(-c5ccccc5)nc4c3)c3c(N)nccn32)C1 + CS(=O)(=O)CCNCc1ccc(-c2ccc3ncnc(Nc4ccc(OCc5cccc(F)c5)c(Cl)c4)c3c2)o1 [lapatinib] (first compound 0.4 µM, partner dose 0.8 µM)",46.9%
18,"Cn1sc(=O)n(Cc2ccccc2)c1=O + CNC(=O)c1cc(Oc2ccc(NC(=O)Nc3ccc(Cl)c(C(F)(F)F)c3)cc2)ccn1 [sorafenib] (first compound 0.4 µM, partner dose 0.4 µM)",96.9%
19,"CN(c1ncccc1CNc1nc(Nc2ccc3c(c2)CC(=O)N3)ncc1C(F)(F)F)S(C)(=O)=O + CS(=O)(=O)CCNCc1ccc(-c2ccc3ncnc(Nc4ccc(OCc5cccc(F)c5)c(Cl)c4)c3c2)o1 [lapatinib] (first compound 0.08 µM, partner dose 0.8 µM)",49.3%
20,"CCCCCCCCc1ccc(CCC(N)(CO)CO)cc1 [fingolimod] + CC(=O)O[C@@]12CO[C@@H]1C[C@H](O)[C@@]1(C)C(=O)[C@H](O)C3=C(C)[C@@H](OC(=O)[C@H](O)[C@@H](NC(=O)OC(C)(C)C)c4ccccc4)C[C@@](O)([C@@H](OC(=O)c4ccccc4)[C@H]21)C3(C)C [Docetaxel] (first compound 2 µM, partner dose 0.0001 µM)",236%
21,"CCCCCCCCc1ccc(CCC(N)(CO)CO)cc1 [fingolimod] + COCC[n+]1c2c(n(Cc3cnccn3)c1C)C(=O)c1ccccc1C2=O [YM155] (first compound 2 µM, partner dose 0.0004 µM)",98.8%
22,"NC1(c2ccc(-c3nc4ccn5c(=O)[nH]nc5c4cc3-c3ccccc3)cc2)CCC1 + C[C@@H](Oc1cc(-c2cnn(C3CCNCC3)c2)cnc1N)c1c(Cl)ccc(F)c1Cl [Crizotinib] (first compound 0.4 µM, partner dose 0.2 µM)",104%
23,"C[C@]1(O)C[C@@H](c2nc(-c3ccc4ccc(-c5ccccc5)nc4c3)c3c(N)nccn32)C1 + Cc1cc(Nc2cc(N3CCN(C)CC3)nc(/C=C/c3ccccc3)n2)n[nH]1 [ENMD2076] (first compound 0.4 µM, partner dose 0.04 µM)",122%
24,"Cn1sc(=O)n(Cc2ccccc2)c1=O + C[C@@H](Oc1cc(-c2cnn(C3CCNCC3)c2)cnc1N)c1c(Cl)ccc(F)c1Cl [Crizotinib] (first compound 0.4 µM, partner dose 0.2 µM)",237%
25,"NC(=O)c1ccc(N(C(N)=O)c2c(F)cccc2F)nc1-c1ccc(F)cc1F + CCCCCCCCc1ccc(CCC(N)(CO)CO)cc1 [fingolimod] (first compound 0.4 µM, partner dose 2 µM)",109%
26,"NC1(c2ccc(-c3nc4ccn5c(=O)[nH]nc5c4cc3-c3ccccc3)cc2)CCC1 + CO[C@H]1C[C@@H]2CC[C@@H](C)[C@@](O)(O2)C(=O)C(=O)N2CCCC[C@H]2C(=O)O[C@H]([C@H](C)C[C@@H]2CC[C@@H](OCCO)[C@H](OC)C2)CC(=O)[C@H](C)/C=C(\C)[C@@H](O)[C@@H](OC)C(=O)[C@H](C)C[C@H](C)/C=C/C=C/C=C/1C [everolimus] (first compound 0.4 µM, partner dose 0.02 µM)",183%

# Seven entries from above, with bars between the fields.
row | SMILES | cleaved PARP positive nuclei fraction
5 | C[C@]1(O)C[C@@H](c2nc(-c3ccc4ccc(-c5ccccc5)nc4c3)c3c(N)nccn32)C1 + CCCS(=O)(=O)Nc1ccc(F)c(C(=O)c2c[nH]c3ncc(Cl)cc23)c1F [PLX4720] (first compound 0.4 µM, partner dose 0.08 µM) | 196%
6 | CN(c1ncccc1CNc1nc(Nc2ccc3c(c2)CC(=O)N3)ncc1C(F)(F)F)S(C)(=O)=O + Cn1c(=O)n(-c2ccc(C(C)(C)C#N)cc2)c2c3cc(-c4cnc5ccccc5c4)ccc3ncc21 [NVP-BEZ235] (first compound 0.08 µM, partner dose 0.004 µM) | 105%
7 | NC(=O)c1ccc(N(C(N)=O)c2c(F)cccc2F)nc1-c1ccc(F)cc1F + CC(=O)c1c(C)c2cnc(Nc3ccc(N4CCNCC4)cn3)nc2n(C2CCCC2)c1=O [palbociclib] (first compound 0.4 µM, partner dose 0.04 µM) | 144%
8 | CN(c1ncccc1CNc1nc(Nc2ccc3c(c2)CC(=O)N3)ncc1C(F)(F)F)S(C)(=O)=O + CCCS(=O)(=O)Nc1ccc(F)c(C(=O)c2c[nH]c3ncc(Cl)cc23)c1F [PLX4720] (first compound 0.08 µM, partner dose 0.08 µM) | 97.5%
9 | CCCCCCCCc1ccc(CCC(N)(CO)CO)cc1 [fingolimod] + Nc1nc(F)nc2c1ncn2[C@@H]1O[C@H](CO)[C@@H](O)[C@@H]1O [fludarabine] (first compound 2 µM, partner dose 0.2 µM) | 246%
10 | CCCCCCCCc1ccc(CCC(N)(CO)CO)cc1 [fingolimod] + CC(=O)c1c(C)c2cnc(Nc3ccc(N4CCNCC4)cn3)nc2n(C2CCCC2)c1=O [palbociclib] (first compound 2 µM, partner dose 0.04 µM) | 238%
11 | CC(=O)O[C@@]12CO[C@@H]1C[C@H](O)[C@@]1(C)C(=O)[C@H](O)C3=C(C)[C@@H](OC(=O)[C@H](O)[C@@H](NC(=O)OC(C)(C)C)c4ccccc4)C[C@@](O)([C@@H](OC(=O)c4ccccc4)[C@H]21)C3(C)C [Docetaxel] + Cc1cc(Nc2cc(N3CCN(C)CC3)nc(/C=C/c3ccccc3)n2)n[nH]1 [ENMD2076] (first compound 0.0001 µM, partner dose 0.04 µM) | 188%
